Cleaved PARP in drug-treated melanoma cells

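Human melanoma cell lines in 1,536-well plates were treated with two drugs together for 72 h, then fixed, stained and imaged. The read-out is the fraction of cleaved-PARP-positive nuclei, in % of that fraction in the DMSO control; 200 means twice the control level of this apoptosis marker. Concentrations were fixed for each drug; these are the higher of two levels. The file gives one value for each pair and line, without errors, so small differences may be noise. Basal and induced levels differ widely between cell lines.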
Only some of the drugs and lines screened are listed, without regard to their results.

Drug key:
BMS-536924: Cc1cc(N2CCOCC2)cc2[nH]c(-c3c(NC[C@@H](O)c4cccc(Cl)c4)cc[nH]c3=O)nc12 at 1 µM
GSK650394: O=C(O)c1ccc(-c2c[nH]c3ncc(-c4ccccc4)cc23)cc1C1CCCC1 at 0.8 µM
nilotinib: Cc1cn(-c2cc(NC(=O)c3ccc(C)c(Nc4nccc(-c5cccnc5)n4)c3)cc(C(F)(F)F)c2)cn1 at 1 µM
CP-690550: C[C@@H]1CCN(C(=O)CC#N)C[C@@H]1N(C)c1ncnc2[nH]ccc12 at 5 µM
NVP-BEZ235: Cn1c(=O)n(-c2ccc(C(C)(C)C#N)cc2)c2c3cc(-c4cnc5ccccc5c4)ccc3ncc21 at 0.02 µM
lenalidomide: Nc1cccc2c1CN(C1CCC(=O)NC1=O)C2=O (stereo not shown) at 5 µM
IMD-0354: O=C(Nc1cc(C(F)(F)F)cc(C(F)(F)F)c1)c1cc(Cl)ccc1O at 0.08 µM
MK-2206: NC1(c2ccc(-c3nc4ccn5c(=O)[nH]nc5c4cc3-c3ccccc3)cc2)CCC1 at 2 µM
GSK0660: COC(=O)c1sccc1S(=O)(=O)Nc1ccc(Nc2ccccc2)cc1OC at 5 µM
tozasertib: Cc1cc(Nc2cc(N3CCN(C)CC3)nc(Sc3ccc(NC(=O)C4CC4)cc3)n2)n[nH]1 at 0.03 µM

| # | Drugs | WM115 | COLO 829 | SK-MEL-28 | SK-MEL-5 | RPMI-7951 | COLO 792 | UACC-257 | A101D | LB2518-MEL | WM3526 |
|---|---|---|---|---|---|---|---|---|---|---|---|
| 1 | NVP-BEZ235 + GSK0660 | 349 | 83.8 | 80.0 | 145 | 146 | 202 | 36.6 | 110 | 67.7 | 83.9 |
| 2 | IMD-0354 + nilotinib | 182 | 68.2 | 129 | 338 | 81.1 | 100 | 51.1 | 58.6 | 100 | 127 |
| 3 | CP-690550 + GSK650394 | 92.6 | 133 | 85.0 | 116 | 99.7 | 174 | 77.1 | 107 | 97.1 | 173 |
| 4 | GSK650394 + GSK0660 | 69.6 | 74.8 | 94.8 | 96.6 | 70.2 | 133 | 25.8 | 102 | 56.8 | 171 |
| 5 | GSK0660 + MK-2206 | 57.2 | 71.9 | 41.2 | 252 | 35.1 | 205 | 65.1 | 117 | 242 | 209 |
| 6 | tozasertib + GSK650394 | 72.8 | 335 | 348 | 204 | 46.0 | 45.2 | 86.2 | 57.6 | 82.0 | 193 |
| 7 | GSK0660 + IMD-0354 | 203 | 138 | 34.5 | 116 | 121 | 53.8 | 34.6 | 125 | 55.3 | 43.7 |
| 8 | IMD-0354 + tozasertib | 369 | 107 | 80.5 | 197 | 100 | 107 | 87.1 | 101 | 46.1 | 198 |
| 9 | BMS-536924 + GSK650394 | 59.6 | 107 | 43.9 | 61.6 | 118 | 339 | 175 | 155 | 110 | 477 |
| 10 | nilotinib + GSK650394 | 110 | 74.4 | 51.3 | 217 | 472 | 76.4 | 35.8 | 99.9 | 54.6 | 121 |
| 11 | CP-690550 + GSK0660 | 37.7 | 56.9 | 69.8 | 49.0 | 31.8 | 72.2 | 53.7 | 79.7 | 21.9 | 27.6 |
| 12 | lenalidomide + tozasertib | 90.4 | 54.5 | 260 | 90.7 | 153 | 132 | 83.0 | 76.8 | 158 | 115 |
| 13 | nilotinib + NVP-BEZ235 | 386 | 99.0 | 164 | 48.7 | 84.2 | 194 | 45.9 | 84.5 | 42.7 | 160 |
| 14 | CP-690550 + NVP-BEZ235 | 109 | 72.2 | 107 | 100 | 139 | 164 | 66.1 | 236 | 88.3 | 75.3 |
| 15 | nilotinib + BMS-536924 | 128 | 24.7 | 185 | 222 | 118 | 133 | 136 | 123 | 116 | 202 |
| 16 | CP-690550 + tozasertib | 207 | 140 | 115 | 42.9 | 68.4 | 105 | 69.1 | 132 | 56.6 | 155 |
| 17 | CP-690550 + BMS-536924 | 69.3 | 60.1 | 84.4 | 133 | 46.5 | 176 | 67.0 | 116 | 85.3 | 127 |
| 18 | tozasertib + GSK0660 | 98.2 | 102 | 180 | 193 | 152 | 145 | 70.8 | 45.7 | 147 | 174 |
| 19 | lenalidomide + BMS-536924 | 61.2 | 143 | 180 | 218 | 26.1 | 207 | 47.1 | 137 | 120 | 294 |
| 20 | GSK0660 + lenalidomide | 193 | 154 | 51.1 | 146 | 90.5 | 89.7 | 33.1 | 33.1 | 55.9 | 74.7 |
| 21 | CP-690550 + nilotinib | 119 | 94.1 | 108 | 115 | 122 | 177 | 54.4 | 108 | 108 | 114 |
| 22 | GSK650394 + MK-2206 | 110 | 119 | 133 | 113 | 100 | 102 | 77.0 | 101 | 155 | 227 |
| 23 | NVP-BEZ235 + tozasertib | 172 | 134 | 290 | 93.2 | 38.8 | 103 | 84.9 | 89.6 | 169 | 211 |
| 24 | BMS-536924 + NVP-BEZ235 | 66.8 | 89.9 | 37.2 | 648 | 63.1 | 509 | 81.6 | 247 | 408 | 602 |
| 25 | CP-690550 + IMD-0354 | 123 | 117 | 58.8 | 123 | 71.7 | 66.4 | 38.8 | 45.5 | 81.3 | 139 |
| 26 | lenalidomide + CP-690550 | 100 | 66.2 | 40.9 | 70.8 | 24.7 | 76.6 | 59.8 | 83.8 | 89.3 | 48.5 |
| 27 | CP-690550 + MK-2206 | 23.4 | 122 | 129 | 140 | 102 | 214 | 32.7 | 135 | 113 | 284 |
| 28 | NVP-BEZ235 + MK-2206 | 444 | 252 | 78.8 | 1110 | 130 | 648 | 44.5 | 145 | 576 | 913 |
| 29 | NVP-BEZ235 + lenalidomide | 216 | 81.9 | 182 | 230 | 156 | 166 | 28.3 | 181 | 76.6 | 194 |
| 30 | BMS-536924 + GSK0660 | 223 | 83.7 | 166 | 198 | 133 | 45.1 | 33.6 | 155 | 101 | 163 |
| 31 | MK-2206 + IMD-0354 | 297 | 173 | 35.5 | 451 | 98.4 | 294 | 80.3 | 42.0 | 166 | 195 |
| 32 | lenalidomide + GSK650394 | 88.8 | 207 | 261 | 139 | 94.2 | 193 | 129 | 137 | 119 | 156 |
| 33 | nilotinib + MK-2206 | 686 | 117 | 209 | 337 | 96.1 | 93.0 | 34.7 | 224 | 206 | 110 |
| 34 | GSK0660 + nilotinib | 77.6 | 57.2 | 83.0 | 69.1 | 25.2 | 65.2 | 33.2 | 67.8 | 43.3 | 155 |
| 35 | NVP-BEZ235 + GSK650394 | 83.3 | 121 | 45.9 | 111 | 198 | 261 | 69.3 | 177 | 72.2 | 186 |
| 36 | lenalidomide + nilotinib | 47.2 | 132 | 69.0 | 214 | 88.4 | 77.9 | 26.3 | 139 | 64.6 | 82.6 |
| 37 | IMD-0354 + GSK650394 | 56.2 | 284 | 192 | 121 | 43.8 | 46.2 | 70.5 | 283 | 63.4 | 147 |
| 38 | IMD-0354 + BMS-536924 | 52.9 | 146 | 67.1 | 172 | 99.0 | 358 | 105 | 88.0 | 97.2 | 235 |

3 of the entries, repeated:

Drugs	WM115	COLO 829	SK-MEL-28	SK-MEL-5	RPMI-7951	COLO 792	UACC-257	A101D	LB2518-MEL	WM3526
tozasertib + GSK0660	98.2	102	180	193	152	145	70.8	45.7	147	174
GSK650394 + MK-2206	110	119	133	113	100	102	77.0	101	155	227
NVP-BEZ235 + tozasertib	172	134	290	93.2	38.8	103	84.9	89.6	169	211

Source: doi:10.1371/journal.pone.0140310, primary screening data, rounded.